# Assay results

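Mouse JNK3 activity from prestimulated HepG2 lysate, measured as phospho-c-Jun AlphaScreen signal after two hours of kinase reaction plus three hours detection.
Each compound ran as a dilution series from about 0.6 nM up to 57.1 µM.
Fitted AC50 for either an inhibiting or an activating curve; a lower value means greater potency.
Calls come from the fitted dose curve (inhibitor, activator, inactive or inconclusive); every row here is inconclusive, including some full curves, so the exact cut-off is unclear.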

Values are in µM.
All entries here are filed as inconclusive.
These entries are mostly ones the record files as inconclusive; other results of the assay are not listed here.
Potencies fitted to partial, single-point or poorly fitting curves are rough.
Some entries filed as inconclusive have a full curve.
The first word of each remark tells which way the curve ran; it can be opposite to the aim of the assay.

structure,potency (µM),curve as filed
O=C(O)CN(CCN(CC(=O)O)CC(=O)O)CCN(CC(=O)O)CC(=O)O,0.002512,"inhibitor, full curve, poor fit"
CSc1ccc2c(c1)[C@H](N1CCN(C)CC1)Cc1ccccc1S2,12.59,"activator, partial curve, poor fit"
Nc1ccc2cc3ccccc3cc2c1,31.62,"activator, partial curve"
CCOP(=S)(OCC)SCCSCC,15.85,"activator, full curve"
CCCC[C@@H]1C[C@H]1C(NC(=O)c1ccco1)c1ccc(Cl)cc1 (some centres unmarked),25.12,"activator, single point"
CC(=O)NCCc1ccc(O)c(O)c1,5.012,"activator, partial curve, poor fit"
C=CCN1CC[C@@]23c4c5ccc(O)c4O[C@H]2/C(=N\N=C2/CC[C@@]4(O)[C@H]6Cc7ccc(O)c8c7[C@@]4(CCN6CC=C)[C@@H]2O8)CC[C@]3(O)[C@@H]1C5,0.002512,"inhibitor, full curve, poor fit"
NCCC[C@@H](CC(=O)N[C@@H]1CCCC[C@H]1C(=O)N[C@H](CC(=O)N[C@@H](CCC(=O)O)CC(=O)O)Cc1ccccc1)NC(=O)C[C@H](Cc1c[nH]c2ccccc12)NC(=O)[C@@H]1CCCC[C@H]1N,3.981,"inhibitor, full curve, poor fit"
C[C@H](Cc1ccc(O)c(O)c1)[C@@H](C)Cc1ccc(O)c(O)c1,12.59,"inhibitor, partial curve, poor fit"
Nc1nc(SCc2ccc([N+](=O)[O-])cc2)c2ncn([C@@H]3O[C@@H](CO)[C@@H](O)[C@H]3O)c2n1,31.62,"activator, partial curve, poor fit"
CC(C)N(CC[C@@](C(N)=O)(c1ccccc1)c1ccccn1)C(C)C,25.12,"activator, partial curve"
COC(=O)[C@H](C)[C@H]1C[C@]1(C)[C@H](NC(=O)OCc1ccccc1)c1ccccc1,31.62,"activator, single point"
Nc1cc(=O)[nH]c(N)n1,0.03162,"activator, full curve, poor fit"
CCCn1c(=O)c2[nH]c(C3CCCC3)nc2n(CCCOC(=O)c2ccc(S(=O)(=O)F)cc2)c1=O,1.585,"inhibitor, full curve"
CNC(=O)[C@H]1O[C@H](n2cnc3c(NCc4cccc(I)c4)nc(Cl)nc32)[C@@H](O)[C@@H]1O,15.85,"inhibitor, partial curve"
CC1=C(/C=C/C(C)=C/C=C/C(C)=C/CO)C(C)(C)CCC1,15.85,"activator, single point"
COc1ccc2c(c1)c(CC(=O)N1CCOCC1)c(C)n2C(=O)c1ccc(Cl)cc1,31.62,"inhibitor, single point"
CCOC(=O)c1ccc(OC(=O)CCCCCN=C(N)N)cc1,5.012,"inhibitor, partial curve"
C/C(O)=C(/C#N)C(=O)Nc1cc(Br)ccc1Br,3.162,"inhibitor, full curve, poor fit"
Clc1ccc2c(c1)C(N1CCNCC1)=Nc1ccccc1O2,0.001995,"inhibitor, full curve, poor fit"
CC(C)(CCc1nc2ccccc2[nH]1)C(=O)O,0.1995,"activator, full curve"
O=C1c2cccc(O)c2C(=O)c2c(O)cccc21,1.585,"inhibitor, full curve"
CN1CCc2cccc(Cl)c2CC1,3.162,"activator, partial curve, poor fit"
Nc1ccc(C(=O)NCC(=O)O)cc1,15.85,"inhibitor, single point"
CN(C(=O)Cc1ccc(Cl)c(Cl)c1)[C@@H](CN1CCCC1)c1cccc(OCC(=O)O)c1,0.01259,"activator, full curve, poor fit"

2 of the entries, repeated:

{"structure": "CN1CCc2cccc(Cl)c2CC1", "potency (µM)": "3.162", "curve as filed": "activator, partial curve, poor fit"}
{"structure": "O=C(O)CN(CCN(CC(=O)O)CC(=O)O)CCN(CC(=O)O)CC(=O)O", "potency (µM)": "0.002512", "curve as filed": "inhibitor, full curve, poor fit"}

From PubChem BioAssay record AID530 (NCATS, 2006).